Assay results from patent US20020176853A1.
No constants are given. Whether binding was seen depends on the method and setting. In cells and extracts the contact can be indirect. Some binding calls cover weakened binding; strength is not graded here.

Sequences of proteins named here, by UniProt entry; tags and fusion partners are left off. A change or cut given only in a name is not applied to a line headed by its entry.
UniProt P29466: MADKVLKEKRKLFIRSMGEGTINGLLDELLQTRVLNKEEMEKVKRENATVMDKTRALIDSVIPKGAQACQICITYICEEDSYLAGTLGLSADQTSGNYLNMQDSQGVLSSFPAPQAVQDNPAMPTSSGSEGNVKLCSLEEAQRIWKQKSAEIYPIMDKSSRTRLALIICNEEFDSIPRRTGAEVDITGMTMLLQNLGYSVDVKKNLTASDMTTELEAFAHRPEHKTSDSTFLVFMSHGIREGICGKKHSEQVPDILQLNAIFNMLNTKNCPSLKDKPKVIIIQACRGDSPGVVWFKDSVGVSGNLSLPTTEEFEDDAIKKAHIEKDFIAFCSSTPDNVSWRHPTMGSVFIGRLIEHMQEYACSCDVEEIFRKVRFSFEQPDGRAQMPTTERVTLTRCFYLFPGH

Target: pro-caspase-1 (C285A mutant) (human) (UniProt P29466)
Test: co-immunoprecipitation of Myc- and HA-tagged pro-caspase-1 (C285A) from 293T lysates

binding: binds
Substance: pro-caspase-1 (C285A mutant) (from UniProt P29466 1-404) (enzyme)
